Measured values: patent publication US6042848A, “Enhancement of antimicrobial peptide activity by metal ions” (The Board of Trustees of Southern Illinois University, priority 1997, dated 2000)
At least one peptide structure holds a part that was inferred or is arguable (an end, a ring closure or a residue).

Test system: E. coli
Test: Bactericidal assay, E. coli colony count after 30 min incubation with peptide and CuSO4
Assay type: cell-based
Conditions: for # COLONIES / % SURVIVAL: peptide 10 ug/ml; for % SURVIVAL: 30 min 37 C
Procedure: Bovine TAP was synthesized and purified to a single HPLC peak. Bactericidal assay was carried out by growing wild-type E. coli in tryptic soy broth (TSB) until the OD600 reached 0.2. Cells were then diluted in 50 μl 10 mM NaPO4 buffer, pH 7.4, to 4×10^5 cells/ml. […] Five Al samples were plated on L-agar, and the plates were incubated at 37° C. overnight. Colonies were then counted.

## CC(C)C[C@H](NC(=O)[C@H](Cc1ccccc1)NC(=O)[C@@H]1CCCN1C(=O)[C@H](Cc1c[nH]c2ccccc12)NC(=O)[C@H](Cc1c[nH]c2ccccc12)NC(=O)[C@H](Cc1c[nH]c2ccccc12)NC(=O)[C@@H]1CCCN1C(=O)[C@H](Cc1ccccc1)NC(=O)[C@H](CCCNC(=N)N)NC(=O)[C@H](CCCNC(=N)N)NC(=O)[C@@H](N)C(C)C)C(=O)N[C@@H](CCCNC(=N)N)C(=O)N[C@@H](CCCNC(=N)N)C(=O)O [Peptide #11, VRRFPWWWPFLRR]
0.01 to 0.1 mM CuS04
  effect of CuSO4 on the antimicrobial activity of the peptide: enhanced the antimicrobial activity
Cu 0 mM
  # COLONIES: 2310
Cu 0.01 mM
  # COLONIES: 2255
Cu 0.1 mM
  # COLONIES: 984
CuSO4 0 mM
  % SURVIVAL: 92%
CuSO4 0.01 mM
  % SURVIVAL: 90%
CuSO4 0.1 mM
  % SURVIVAL: 39%
